No constants are given. Whether binding was seen depends on the method and setting. Some entries that bind do so weakly or less than the wild type.
Target: human CLDN-18.2 (human, UniProt P56856 1-261)
Experiment: flow cytometry on NUGC4-CLDN-18.2 cells, fluorescent secondary antibody

Protein sequences, listed by entry. Tags and fused reporters are not part of them. Lines headed by an entry give the natural chain unless they say otherwise; changes in a name come on top.
UniProt P56856: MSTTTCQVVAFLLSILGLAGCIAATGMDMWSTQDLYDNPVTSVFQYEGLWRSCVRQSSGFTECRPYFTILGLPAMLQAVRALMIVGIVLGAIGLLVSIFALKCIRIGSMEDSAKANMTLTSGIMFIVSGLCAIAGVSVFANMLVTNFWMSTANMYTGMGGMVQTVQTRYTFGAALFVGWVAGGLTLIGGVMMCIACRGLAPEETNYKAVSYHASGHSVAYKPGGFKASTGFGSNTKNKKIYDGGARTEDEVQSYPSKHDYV

binding: binds
B1: JS012-Chi2-hu2-v3-2a (antibody, human IgG1, kappa, V domains shown)
VH: EVQLVESGGGLVQPGGSLRLSCAASGFTLNNFGMHWVRQAPGKGLEWVSSISSGSGTIYYADSVKGRFTISRDNPKNSLYLQMNSLRAEDTAVYYCARAYYGNGFSFWGQGTLVTVSS
VL: DIVMTQSPDSLAVSLGERATINCKSSQSLLNSGNQKNYLTWYQQKPGQPPKLLIYWASTRESGVPDRFSGSGSGTDFTLTISSLQAEDVAVYYCQNVYSYPLTFGQGTKLEIKR
notes: also called JS107-5

Reference: patent US20250127915A1 (SHANGHAI JUNSHI BIOSCIENCES, published 2025)
